Data as given in the supplement of paper PMC10849652.
The other results are listed elsewhere or left out.

Protein sequences, listed by entry. Tags and fused reporters are not part of them. Lines headed by an entry give the natural chain unless they say otherwise; changes in a name come on top.
UniProt O60271: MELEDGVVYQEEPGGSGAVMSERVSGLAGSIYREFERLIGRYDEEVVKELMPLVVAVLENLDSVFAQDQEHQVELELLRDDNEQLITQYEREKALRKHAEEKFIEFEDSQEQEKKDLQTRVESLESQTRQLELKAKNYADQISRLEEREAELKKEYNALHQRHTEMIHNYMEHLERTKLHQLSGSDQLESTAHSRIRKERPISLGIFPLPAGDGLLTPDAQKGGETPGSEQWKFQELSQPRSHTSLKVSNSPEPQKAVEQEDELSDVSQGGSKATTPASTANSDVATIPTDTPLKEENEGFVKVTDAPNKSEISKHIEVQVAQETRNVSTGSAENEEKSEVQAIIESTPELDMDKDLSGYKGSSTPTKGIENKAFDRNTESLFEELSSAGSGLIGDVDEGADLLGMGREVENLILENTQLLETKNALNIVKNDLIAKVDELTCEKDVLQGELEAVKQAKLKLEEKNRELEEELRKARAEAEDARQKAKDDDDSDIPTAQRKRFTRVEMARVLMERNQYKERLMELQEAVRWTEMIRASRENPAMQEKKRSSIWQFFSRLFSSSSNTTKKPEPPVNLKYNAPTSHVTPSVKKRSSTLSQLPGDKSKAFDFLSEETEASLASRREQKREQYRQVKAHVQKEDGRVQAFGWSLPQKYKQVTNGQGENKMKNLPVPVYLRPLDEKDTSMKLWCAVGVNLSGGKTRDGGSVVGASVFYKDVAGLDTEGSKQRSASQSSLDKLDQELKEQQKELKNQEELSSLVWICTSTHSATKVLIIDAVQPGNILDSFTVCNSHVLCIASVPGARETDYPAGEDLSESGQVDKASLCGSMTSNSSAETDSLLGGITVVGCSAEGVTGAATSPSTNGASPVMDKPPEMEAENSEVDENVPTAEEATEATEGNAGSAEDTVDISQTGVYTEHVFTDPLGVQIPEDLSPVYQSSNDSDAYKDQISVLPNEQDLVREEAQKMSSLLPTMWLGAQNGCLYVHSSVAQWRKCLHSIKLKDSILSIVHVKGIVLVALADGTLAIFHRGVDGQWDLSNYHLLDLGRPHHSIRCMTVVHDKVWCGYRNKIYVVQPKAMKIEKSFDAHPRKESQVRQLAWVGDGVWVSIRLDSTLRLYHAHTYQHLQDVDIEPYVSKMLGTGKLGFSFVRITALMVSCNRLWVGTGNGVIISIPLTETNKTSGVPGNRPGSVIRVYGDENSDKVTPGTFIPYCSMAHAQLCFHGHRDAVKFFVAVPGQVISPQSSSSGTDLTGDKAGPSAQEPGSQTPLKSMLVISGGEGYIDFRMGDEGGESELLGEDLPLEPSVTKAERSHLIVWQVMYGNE
UniProt O75391: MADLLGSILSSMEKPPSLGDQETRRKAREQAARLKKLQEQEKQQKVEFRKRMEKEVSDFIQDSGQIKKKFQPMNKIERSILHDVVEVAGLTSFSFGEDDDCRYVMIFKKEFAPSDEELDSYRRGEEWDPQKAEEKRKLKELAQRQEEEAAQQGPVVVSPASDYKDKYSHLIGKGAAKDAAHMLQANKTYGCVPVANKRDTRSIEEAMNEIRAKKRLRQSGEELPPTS
UniProt O60641: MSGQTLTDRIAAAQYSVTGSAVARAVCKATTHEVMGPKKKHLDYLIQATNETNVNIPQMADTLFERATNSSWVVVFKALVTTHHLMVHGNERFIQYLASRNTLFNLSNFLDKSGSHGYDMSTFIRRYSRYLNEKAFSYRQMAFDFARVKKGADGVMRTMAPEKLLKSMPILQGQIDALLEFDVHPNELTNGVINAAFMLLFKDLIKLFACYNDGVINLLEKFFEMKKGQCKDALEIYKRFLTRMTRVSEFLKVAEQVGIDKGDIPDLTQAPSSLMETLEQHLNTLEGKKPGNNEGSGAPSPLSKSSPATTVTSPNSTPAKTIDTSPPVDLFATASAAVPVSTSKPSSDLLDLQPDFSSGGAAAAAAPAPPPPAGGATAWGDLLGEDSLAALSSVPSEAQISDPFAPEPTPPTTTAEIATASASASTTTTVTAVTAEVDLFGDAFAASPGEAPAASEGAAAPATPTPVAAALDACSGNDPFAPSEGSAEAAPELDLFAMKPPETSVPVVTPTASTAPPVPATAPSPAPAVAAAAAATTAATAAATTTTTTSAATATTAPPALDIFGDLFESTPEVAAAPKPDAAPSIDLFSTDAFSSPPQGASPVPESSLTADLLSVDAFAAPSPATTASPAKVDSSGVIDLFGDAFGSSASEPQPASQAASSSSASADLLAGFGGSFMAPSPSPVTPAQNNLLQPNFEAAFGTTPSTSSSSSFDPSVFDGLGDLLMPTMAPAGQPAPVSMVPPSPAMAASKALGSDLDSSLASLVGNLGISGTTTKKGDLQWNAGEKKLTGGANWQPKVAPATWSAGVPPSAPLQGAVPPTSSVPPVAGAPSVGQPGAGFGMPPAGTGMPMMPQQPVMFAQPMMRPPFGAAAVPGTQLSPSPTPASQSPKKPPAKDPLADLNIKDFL
UniProt O00161: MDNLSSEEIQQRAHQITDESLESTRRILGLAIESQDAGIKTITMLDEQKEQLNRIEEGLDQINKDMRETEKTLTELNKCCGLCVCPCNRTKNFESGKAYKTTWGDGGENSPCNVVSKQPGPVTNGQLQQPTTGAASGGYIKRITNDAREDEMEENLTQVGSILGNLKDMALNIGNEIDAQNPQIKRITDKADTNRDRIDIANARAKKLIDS
UniProt Q99523, whole entry, looked up: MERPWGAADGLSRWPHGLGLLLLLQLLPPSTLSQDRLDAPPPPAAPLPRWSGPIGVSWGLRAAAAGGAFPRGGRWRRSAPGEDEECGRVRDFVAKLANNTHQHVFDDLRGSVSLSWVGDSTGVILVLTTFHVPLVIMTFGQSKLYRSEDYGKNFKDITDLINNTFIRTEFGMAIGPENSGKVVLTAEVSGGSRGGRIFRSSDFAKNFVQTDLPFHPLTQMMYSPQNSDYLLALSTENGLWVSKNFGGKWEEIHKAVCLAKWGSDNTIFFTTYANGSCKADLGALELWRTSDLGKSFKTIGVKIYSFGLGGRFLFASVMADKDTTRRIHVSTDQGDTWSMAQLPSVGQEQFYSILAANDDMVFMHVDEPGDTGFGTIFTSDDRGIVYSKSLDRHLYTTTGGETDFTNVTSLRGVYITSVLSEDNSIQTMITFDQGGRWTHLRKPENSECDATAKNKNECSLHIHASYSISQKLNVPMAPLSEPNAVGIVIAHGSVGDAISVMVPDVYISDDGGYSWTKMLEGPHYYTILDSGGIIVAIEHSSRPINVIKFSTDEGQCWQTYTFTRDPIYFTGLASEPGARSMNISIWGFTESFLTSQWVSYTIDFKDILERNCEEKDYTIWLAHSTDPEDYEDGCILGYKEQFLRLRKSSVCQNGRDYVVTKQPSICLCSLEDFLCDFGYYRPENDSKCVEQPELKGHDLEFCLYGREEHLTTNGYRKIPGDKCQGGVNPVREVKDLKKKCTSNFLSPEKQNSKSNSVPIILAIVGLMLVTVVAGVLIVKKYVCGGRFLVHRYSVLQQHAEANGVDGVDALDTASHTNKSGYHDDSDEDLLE
UniProt Q16637, whole entry, looked up: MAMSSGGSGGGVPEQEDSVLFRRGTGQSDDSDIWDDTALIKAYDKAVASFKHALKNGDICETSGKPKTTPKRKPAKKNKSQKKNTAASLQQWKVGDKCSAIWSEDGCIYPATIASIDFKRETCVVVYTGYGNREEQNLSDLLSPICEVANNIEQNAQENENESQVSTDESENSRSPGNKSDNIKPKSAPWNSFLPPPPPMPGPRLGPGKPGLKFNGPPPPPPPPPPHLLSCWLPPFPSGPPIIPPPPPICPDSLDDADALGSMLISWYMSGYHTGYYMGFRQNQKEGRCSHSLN
UniProt Q86US8: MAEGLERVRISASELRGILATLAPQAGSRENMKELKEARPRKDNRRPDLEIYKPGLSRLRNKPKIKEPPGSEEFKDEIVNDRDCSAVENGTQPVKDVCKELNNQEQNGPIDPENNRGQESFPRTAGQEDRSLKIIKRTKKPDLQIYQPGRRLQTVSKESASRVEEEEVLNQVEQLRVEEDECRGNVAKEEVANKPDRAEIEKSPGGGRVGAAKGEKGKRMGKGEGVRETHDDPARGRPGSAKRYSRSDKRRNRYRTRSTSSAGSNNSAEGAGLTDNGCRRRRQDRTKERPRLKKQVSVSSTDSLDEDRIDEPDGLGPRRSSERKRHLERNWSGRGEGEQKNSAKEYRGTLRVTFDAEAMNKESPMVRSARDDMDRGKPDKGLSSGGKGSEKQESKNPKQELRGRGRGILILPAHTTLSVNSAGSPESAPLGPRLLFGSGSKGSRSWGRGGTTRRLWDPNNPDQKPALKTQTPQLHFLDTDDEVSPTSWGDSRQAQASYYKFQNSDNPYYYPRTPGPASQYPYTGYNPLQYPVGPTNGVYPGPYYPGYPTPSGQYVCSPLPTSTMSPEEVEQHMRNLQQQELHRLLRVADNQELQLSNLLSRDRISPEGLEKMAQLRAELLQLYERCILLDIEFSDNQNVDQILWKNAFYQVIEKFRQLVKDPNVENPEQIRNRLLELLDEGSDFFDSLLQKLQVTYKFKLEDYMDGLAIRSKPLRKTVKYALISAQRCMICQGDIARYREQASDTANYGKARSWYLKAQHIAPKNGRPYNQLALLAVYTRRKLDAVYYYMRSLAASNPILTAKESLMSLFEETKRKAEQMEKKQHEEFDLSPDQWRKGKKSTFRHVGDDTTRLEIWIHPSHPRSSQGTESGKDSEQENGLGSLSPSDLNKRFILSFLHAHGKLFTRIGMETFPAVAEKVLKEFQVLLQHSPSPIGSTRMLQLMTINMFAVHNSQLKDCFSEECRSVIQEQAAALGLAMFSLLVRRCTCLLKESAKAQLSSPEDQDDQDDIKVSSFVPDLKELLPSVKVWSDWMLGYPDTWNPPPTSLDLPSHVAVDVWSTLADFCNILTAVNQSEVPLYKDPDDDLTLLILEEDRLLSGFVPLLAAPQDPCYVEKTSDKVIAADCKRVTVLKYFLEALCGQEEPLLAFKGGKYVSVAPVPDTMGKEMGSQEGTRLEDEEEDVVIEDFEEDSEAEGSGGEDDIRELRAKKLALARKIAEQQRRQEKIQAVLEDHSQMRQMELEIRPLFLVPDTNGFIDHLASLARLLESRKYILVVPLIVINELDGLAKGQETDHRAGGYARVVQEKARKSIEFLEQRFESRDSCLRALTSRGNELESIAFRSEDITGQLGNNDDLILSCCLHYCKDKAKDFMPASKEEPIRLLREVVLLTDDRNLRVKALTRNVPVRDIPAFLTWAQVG
UniProt Q5SQN1: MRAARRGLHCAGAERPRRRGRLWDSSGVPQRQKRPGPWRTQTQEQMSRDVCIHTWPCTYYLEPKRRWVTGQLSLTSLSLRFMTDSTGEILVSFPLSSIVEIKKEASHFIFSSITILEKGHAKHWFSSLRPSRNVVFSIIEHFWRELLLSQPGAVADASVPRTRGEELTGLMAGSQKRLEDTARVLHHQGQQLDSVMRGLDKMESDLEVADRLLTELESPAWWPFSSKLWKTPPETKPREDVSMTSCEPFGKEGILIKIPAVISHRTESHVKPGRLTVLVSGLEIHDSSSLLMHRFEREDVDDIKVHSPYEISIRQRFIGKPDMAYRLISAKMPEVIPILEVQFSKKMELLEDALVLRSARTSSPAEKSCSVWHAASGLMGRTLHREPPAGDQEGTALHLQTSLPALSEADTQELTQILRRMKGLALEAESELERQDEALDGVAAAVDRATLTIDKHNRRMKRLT
UniProt O75971: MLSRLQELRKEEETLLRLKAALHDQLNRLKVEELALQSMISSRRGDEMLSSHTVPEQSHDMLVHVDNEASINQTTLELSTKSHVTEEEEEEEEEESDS
UniProt P35712: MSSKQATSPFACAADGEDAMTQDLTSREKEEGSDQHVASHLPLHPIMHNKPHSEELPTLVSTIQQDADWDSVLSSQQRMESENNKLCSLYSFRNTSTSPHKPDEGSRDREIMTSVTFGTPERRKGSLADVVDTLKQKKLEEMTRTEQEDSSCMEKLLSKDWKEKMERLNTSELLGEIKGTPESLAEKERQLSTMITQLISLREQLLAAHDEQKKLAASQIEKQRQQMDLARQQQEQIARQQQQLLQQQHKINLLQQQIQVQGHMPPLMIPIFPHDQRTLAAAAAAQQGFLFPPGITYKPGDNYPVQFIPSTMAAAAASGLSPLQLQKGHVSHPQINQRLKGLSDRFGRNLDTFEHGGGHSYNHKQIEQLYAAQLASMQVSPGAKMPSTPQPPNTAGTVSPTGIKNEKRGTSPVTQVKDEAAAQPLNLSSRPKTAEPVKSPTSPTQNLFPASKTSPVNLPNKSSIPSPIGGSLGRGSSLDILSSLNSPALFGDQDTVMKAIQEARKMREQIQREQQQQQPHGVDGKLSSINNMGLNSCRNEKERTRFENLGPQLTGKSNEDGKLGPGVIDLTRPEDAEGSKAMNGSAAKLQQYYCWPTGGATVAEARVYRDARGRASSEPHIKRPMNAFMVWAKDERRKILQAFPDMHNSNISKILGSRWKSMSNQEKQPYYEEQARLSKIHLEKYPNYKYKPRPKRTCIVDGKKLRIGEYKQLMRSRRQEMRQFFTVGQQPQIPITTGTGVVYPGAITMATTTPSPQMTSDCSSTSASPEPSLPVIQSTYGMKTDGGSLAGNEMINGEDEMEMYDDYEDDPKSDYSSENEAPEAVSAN

Key:
Experiment in all cases: log2 fold change, soluble protein after heating vs DMSO (PISA); higher = thermal stabilisation; K562 cells, 10 uM, 30 min; active = over 0.2 and 3.5 SD of the protein, either way, in both replicates (recomputed)
[1] = compound: C1=CC=C(C=C1)[C@H](COC2=CC3=C(C=C2)NC(=O)N3)NC(=O)C4=CC=CN(C4=O)CC5=CC(=C(C=C5)F)F
How it was run: (§1)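 Soluble protein was defined as the supernatant after 21,000xg for 90 min. It came from K562 cells at 2×10^6 cells/mL given 10 μM compound for 30 min, heated in aliquots for 3 min across 48°C-58°C, pooled, and extracted in PBS with 0.5% NP-40 at 4°C, and was quantified by TMTpro 16plex LC-MS/MS with equalised channel sums. Thermal stability against control samples, from duplicates, is reported as log2 fold change.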

[2] = compound: CC1=C(SC2=C1C(=N[C@H](C3=NN=C(N32)C)CC(=O)N)C4=CC=C(C=C4)Cl)C
How it was run: as §1

[3] = compound: CC1=C2C(=CC=C1)N=C(N(C2=O)C3=CC=CC=C3C)CN4C=NC5=C(N=CN=C54)N
How it was run: as §1

[4] = compound: Cc1sc2c(c1C)C(c1ccc(Cl)cc1)=N[C@@H](CC(=O)OC(C)(C)C)c1nnc(C)n1-2
How it was run: as §1

[5] = compound: c1ccc([C@@H]2C[C@H]2NC2CCNCC2)cc1
How it was run: as §1

Measured: log2 fold change

SLC9A8 isoform 2 (UniProt Q9Y2E8)
inactive: [1] 0.01 | [2] -0.147 | [3] -0.008 | [4] 0.028 | [5] 0.185

SNF8 (UniProt Q96H20)
inactive: [1] -0.024 | [2] 0.055 | [3] 0.013 | [4] 0.011 | [5] 0.064

SMC3 (UniProt Q9UQE7)
inactive: [1] -0.014 | [2] 0.031 | [3] 0.058 | [4] 0.005 | [5] 0.002

SNRPE (UniProt P62304)
inactive: [1] 0.011 | [2] 0.027 | [3] 0.031 | [4] 0.007 | [5] 0.064

SMAD4 (UniProt Q13485)
inactive: [1] -0.015 | [2] 0.038 | [3] 0.058 | [4] -0.027 | [5] -0.004

SP3 (UniProt Q02447)
inactive: [1] 0.018 | [2] -0.024 | [3] -0.043 | [4] 0.025 | [5] 0.009

SPAG9 (UniProt O60271)
inactive: [1] -0.033 | [2] 0.002 | [3] 0.071 | [4] 0.024 | [5] -0.006

SMARCC1 (UniProt Q92922)
inactive: [1] -0.11 | [2] 0.06 | [3] 0.169 | [4] -0.046 | [5] 0.005

SMDT1 (UniProt Q9H4I9)
inactive: [1] 0.031 | [2] 0.018 | [3] -0.081 | [4] -0.019 | [5] 0.024

SOCS2 (UniProt O14508)
inactive: [1] -0.043 | [2] -0.042 | [3] 0.062 | [4] 0.037 | [5] 0.071

SMC2 (UniProt O95347)
inactive: [1] -0.024 | [2] 0.008 | [3] 0.031 | [4] 0.031 | [5] -0.015

SPAG7 (UniProt O75391)
inactive: [1] 0.021 | [2] 0.071 | [3] 0.007 | [4] -0.019 | [5] 0.015

SNAP91 (UniProt O60641)
inactive: [1] 0.051 | [2] 0.011 | [3] -0.121 | [4] -0.023 | [5] 0.02

SP1 (UniProt P08047)
inactive: [1] 0.002 | [2] -0.029 | [3] 0.016 | [4] 0.051 | [5] 0.02

SMAP2 (UniProt Q8WU79)
inactive: [1] -0.041 | [2] 0.013 | [3] 0.086 | [4] 0.001 | [5] 0.011

SNAP23 (UniProt O00161)
inactive: [1] 0.014 | [2] -0.001 | [3] 0.002 | [4] -0.008 | [5] 0.049

SNRNP27 (UniProt Q8WVK2)
inactive: [1] 0.027 | [2] -0.058 | [3] 0.021 | [4] 0.023 | [5] 0.044

SNRNP40 (UniProt Q96DI7)
inactive: [1] 0.054 | [2] -0.023 | [3] 0.007 | [4] 0.071 | [5] 0.022

SLC9A3R2 (UniProt Q15599)
inactive: [1] -0.013 | [2] 0.056 | [3] 0.016 | [4] -0.003 | [5] 0.03

SMC1A (UniProt Q14683)
inactive: [1] 0.002 | [2] 0.02 | [3] 0.05 | [4] -0.017 | [5] 0.001

SORT1 (UniProt Q99523)
inactive: [1] 0.029 | [2] -0.01 | [3] -0.03 | [4] 0.027 | [5] 0.009

SP6 (UniProt Q3SY56)
inactive: [1] -0.009 | [2] -0.037 | [3] -0.295 | [4] -0.124 | [5] 0

SNRPC (UniProt Q5TAL2)
inactive: [1] 0.132 | [2] 0.109 | [3] 0.071 | [4] -0.05 | [5] -0.135

SMYD2 (UniProt Q9NRG4)
inactive: [1] 0.018 | [2] -0.096 | [3] 0.086 | [4] -0.056 | [5] 0.065

SMC4 (UniProt Q9NTJ3)
inactive: [1] -0.035 | [2] 0.028 | [3] 0.051 | [4] 0.029 | [5] -0.009

SNX15 (UniProt Q9NRS6)
inactive: [1] 0.065 | [2] -0.032 | [3] 0.141 | [4] 0.279 | [5] -0.081

SLC9A6 isoform 2 (UniProt Q92581)
inactive: [1] -0.007 | [2] 0.066 | [3] 0.068 | [4] -0.014 | [5] 0.047

SMN1 (UniProt Q16637)
inactive: [1] 0.031 | [2] -0.057 | [3] -0.167 | [4] 0.171 | [5] 0.09

SLC7A6OS (UniProt Q96CW6)
inactive: [1] -0.026 | [2] -0.043 | [3] 0.03 | [4] 0.012 | [5] 0.032

SPA17 (UniProt Q15506)
inactive: [1] 0.051 | [2] 0.083 | [3] 0.053 | [4] 0.029 | [5] -0.01

SOD2 (UniProt P04179)
inactive: [1] 0.009 | [2] -0.009 | [3] -0.062 | [4] -0.015 | [5] 0.071

SNRPA (UniProt P09012)
inactive: [1] 0.088 | [2] -0.036 | [3] -0.037 | [4] 0.123 | [5] 0.059

SLCO4A1 (UniProt Q96BD0)
inactive: [1] 0.225 | [2] 0.162 | [3] -0.047 | [4] -0.009 | [5] -0.034

SNRPC (UniProt P09234)
inactive: [1] 0.046 | [2] -0.01 | [3] -0.182 | [4] 0.032 | [5] 0.059

SMPD1 (UniProt P17405)
inactive: [3] 0.181

SNX2 isoform 2 (UniProt O60749)
inactive: [1] 0.092 | [2] 0.217 | [3] 0.094 | [5] 0.066

SNRPA1 (UniProt P09661)
inactive: [1] 0.024 | [2] -0.009 | [3] -0.032 | [4] 0.057 | [5] 0.019

SMG6 (UniProt Q86US8)
inactive: [1] -0.061 | [2] -0.257 | [4] -0.178 | [5] -0.311

SNX14 (UniProt Q9Y5W7)
inactive: [1] 0.057 | [3] 0.013 | [4] 0.1

SMPDL3A (UniProt Q92484)
inactive: [4] 0.048

SNX27 (UniProt Q96L92)
inactive: [2] -0.144 | [3] -0.003 | [4] 0.118 | [5] 0.001

SP4 (UniProt Q02446)
inactive: [4] -0.015

SNAP47 (UniProt Q5SQN1)
inactive: [3] 0.415

SMARCA4 (UniProt P51532)
inactive: [1] 0.073 | [2] -0.023 | [3] 0.244 | [5] -0.027

SMAGP (UniProt Q0VAQ4)
inactive: [1] -0.298 | [2] 0.059 | [4] -0.061 | [5] -0.136

SMAD3 (UniProt P84022)
inactive: [2] -0.082 | [3] -0.09 | [4] -0.001 | [5] 0.041

SLC9A6 isoform 3 (UniProt Q92581)
inactive: [1] -0.057 | [2] 0.003 | [4] -0.005 | [5] 0.089

SLC9A3R1 (UniProt O14745)
inactive: [1] 0.022 | [2] 0.023 | [3] -0.01 | [4] 0 | [5] -0.002

SMIM1 (UniProt B2RUZ4)
inactive: [1] 0.204 | [2] 0.131 | [4] 0.119 | [5] -0.055

SLC9B2 (UniProt Q86UD5)
inactive: [3] -0.144

SMARCAL1 (UniProt Q9NZC9)
inactive: [3] 0.19

SMTN isoform 6 (UniProt P53814)
inactive: [3] -0.156 | [4] 0.017

SNX16 (UniProt P57768)
inactive: [1] 0.053 | [2] -0.124 | [3] 0.157 | [5] -0.035

SNAPIN (UniProt O95295)
inactive: [1] -0.024 | [2] 0.094 | [3] -0.028 | [4] -0.044 | [5] -0.039

SNRPD2 (UniProt K7EJB5)
inactive: [1] 0.016 | [2] -0.066 | [3] 0.104 | [4] 0.118 | [5] 0.03

6 neighbouring records from above, for reference:
SLC9B2 (UniProt Q86UD5)
inactive: [3] -0.144

SMARCAL1 (UniProt Q9NZC9)
inactive: [3] 0.19

SMTN isoform 6 (UniProt P53814)
inactive: [3] -0.156 | [4] 0.017

SNX16 (UniProt P57768)
inactive: [1] 0.053 | [2] -0.124 | [3] 0.157 | [5] -0.035

SNAPIN (UniProt O95295)
inactive: [1] -0.024 | [2] 0.094 | [3] -0.028 | [4] -0.044 | [5] -0.039

SNRPD2 (UniProt K7EJB5)
inactive: [1] 0.016 | [2] -0.066 | [3] 0.104 | [4] 0.118 | [5] 0.03

Next entries:

SMIM29 (UniProt Q86T20)
inactive: [2] 0.032 | [5] -0.117

SON isoform 9 (UniProt P18583)
inactive: [1] -0.166 | [3] -0.012 | [4] 0.019

SNAPC5 (UniProt O75971)
inactive: [1] 0.078 | [3] -0.02 | [4] -0.237

SNAP23 isoform 2 (UniProt O00161)
inactive: [3] -0.503 | [4] 0.277

SOX6 (UniProt P35712)
inactive: [2] 0.157 | [3] 0.05 | [5] -0.224

SMPD4 isoform 2 (UniProt Q9NXE4)
inactive: [1] -0.25 | [2] -0.029 | [3] -0.048 | [4] -0.061 | [5] -0.097
